Results from the supplement of paper PMC12282887.
± gives the standard deviation of the averaged measurements. These are raw signals, not scaled to a control.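 For antimicrobials the highest concentration approximated the MIC. Most other compounds topped out at 500 µM, and known inducer-like compounds reached up to 1 mM. Inocula for deletion strains were tenfold smaller, and any well growing below 10% of the overall median was considered non-growing.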

Test system: Escherichia coli BW25113
Test: growth (OD600 area under curve, 8 h) (OD600 x h); higher = more growth
Experimental: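 E. coli BW25113 reporter strains (wild type, ΔmarA, ΔsoxS, Δrob, each carrying one of 8 lux reporter plasmids) were grown in 40 µl LB in 384-well plates at 37°C, 800 rpm, with each compound at 4 two-fold concentrations, in biological duplicates. Growth is the baseline-corrected OD600 area under the curve over 8 h (0-8 h WT, 1-9 h deletion strains).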

`CC1(C)S[C@@H]2[C@H](NC(=O)[C@H](N)c3ccc(O)cc3)C(=O)N2[C@H]1C(=O)O` [Amoxicillin] gave a growth (0.25 µg/ml, genetic background: wild type, reporter plasmid: EVC) of 3.03 ± 0.12, a growth (0.25 µg/ml, genetic background: wild type, reporter plasmid: acrABp) of 3.44 ± 0.039 and a growth (0.25 µg/ml, genetic background: wild type, reporter plasmid: marRABp) of 3.458 ± 0.015. The growth (0.25 µg/ml, genetic background: wild type, reporter plasmid: micFp) was 2.99 ± 0.1, the growth (0.25 µg/ml, genetic background: wild type, reporter plasmid: ompFp) was 3.258 ± 0.022 and the growth (0.25 µg/ml, genetic background: wild type, reporter plasmid: robp) was 3.44 ± 0.21. It also gave a growth (0.25 µg/ml, genetic background: wild type, reporter plasmid: soxSp) of 2.83 ± 0.25, a growth (0.25 µg/ml, genetic background: wild type, reporter plasmid: tolCp) of 2.88 ± 0.067 and a growth (0.25 µg/ml, genetic background: ΔmarA, reporter plasmid: EVC) of 3.26 ± 0.34. It also gave a growth (0.25 µg/ml, genetic background: ΔmarA, reporter plasmid: acrABp) of 4.41 ± 0.34, a growth (0.25 µg/ml, genetic background: ΔmarA, reporter plasmid: marRABp) of 4.05 ± 0.4 and a growth (0.25 µg/ml, genetic background: ΔmarA, reporter plasmid: micFp) of 3.35 ± 0.41. For the same molecule, the growth (0.25 µg/ml, genetic background: ΔmarA, reporter plasmid: ompFp) was 3.85 ± 0.66, the growth (0.25 µg/ml, genetic background: ΔmarA, reporter plasmid: robp) was 4.33 ± 0.25 and the growth (0.25 µg/ml, genetic background: ΔmarA, reporter plasmid: soxSp) was 3.17 ± 0.31. The growth (0.25 µg/ml, genetic background: ΔmarA, reporter plasmid: tolCp) was 3.09 ± 0.35, the growth (0.25 µg/ml, genetic background: Δrob, reporter plasmid: EVC) was 3.1 ± 0.098 and the growth (0.25 µg/ml, genetic background: Δrob, reporter plasmid: acrABp) was 3.569 ± 0.0084. The growth (0.25 µg/ml, genetic background: Δrob, reporter plasmid: marRABp) was 3.61 ± 0.22, the growth (0.25 µg/ml, genetic background: Δrob, reporter plasmid: micFp) was 2.82 ± 0.079 and the growth (0.25 µg/ml, genetic background: Δrob, reporter plasmid: ompFp) was 2.89 ± 0.47. It also gave a growth (0.25 µg/ml, genetic background: Δrob, reporter plasmid: robp) of 3 ± 0.37, a growth (0.25 µg/ml, genetic background: Δrob, reporter plasmid: soxSp) of 2.71 ± 0.12 and a growth (0.25 µg/ml, genetic background: Δrob, reporter plasmid: tolCp) of 2.97 ± 0.15. It also gave a growth (0.25 µg/ml, genetic background: ΔsoxS, reporter plasmid: EVC) of 3.2 ± 0.4, a growth (0.25 µg/ml, genetic background: ΔsoxS, reporter plasmid: acrABp) of 3.47 ± 0.82 and a growth (0.25 µg/ml, genetic background: ΔsoxS, reporter plasmid: marRABp) of 3.61 ± 0.96. For the same molecule, the growth (0.25 µg/ml, genetic background: ΔsoxS, reporter plasmid: micFp) was 2.909 ± 0.014, the growth (0.25 µg/ml, genetic background: ΔsoxS, reporter plasmid: ompFp) was 3.36 ± 0.41 and the growth (0.25 µg/ml, genetic background: ΔsoxS, reporter plasmid: robp) was 3.64 ± 0.24. The growth (0.25 µg/ml, genetic background: ΔsoxS, reporter plasmid: soxSp) was 3.31 ± 0.56, the growth (0.25 µg/ml, genetic background: ΔsoxS, reporter plasmid: tolCp) was 3.03 ± 0.031 and the growth (0.5 µg/ml, genetic background: wild type, reporter plasmid: EVC) was 2.81 ± 0.12. The growth (0.5 µg/ml, genetic background: wild type, reporter plasmid: acrABp) was 3.4 ± 0.28, the growth (0.5 µg/ml, genetic background: wild type, reporter plasmid: marRABp) was 3.47 ± 0.059 and the growth (0.5 µg/ml, genetic background: wild type, reporter plasmid: micFp) was 2.87 ± 0.17. It also gave a growth (0.5 µg/ml, genetic background: wild type, reporter plasmid: ompFp) of 3.14 ± 0.052, a growth (0.5 µg/ml, genetic background: wild type, reporter plasmid: robp) of 3.24 ± 0.14 and a growth (0.5 µg/ml, genetic background: wild type, reporter plasmid: soxSp) of 2.67 ± 0.031. For the same molecule, the growth (0.5 µg/ml, genetic background: wild type, reporter plasmid: tolCp) was 2.806 ± 0.0032, the growth (0.5 µg/ml, genetic background: ΔmarA, reporter plasmid: EVC) was 3.01 ± 0.16 and the growth (0.5 µg/ml, genetic background: ΔmarA, reporter plasmid: acrABp) was 4.18 ± 0.49. For the same molecule, the growth (0.5 µg/ml, genetic background: ΔmarA, reporter plasmid: marRABp) was 3.95 ± 0.23, the growth (0.5 µg/ml, genetic background: ΔmarA, reporter plasmid: micFp) was 3.24 ± 0.43 and the growth (0.5 µg/ml, genetic background: ΔmarA, reporter plasmid: ompFp) was 3.72 ± 0.84. For the same molecule, the growth (0.5 µg/ml, genetic background: ΔmarA, reporter plasmid: robp) was 4.17 ± 0.24, the growth (0.5 µg/ml, genetic background: ΔmarA, reporter plasmid: soxSp) was 2.99 ± 0.51 and the growth (0.5 µg/ml, genetic background: ΔmarA, reporter plasmid: tolCp) was 2.99 ± 0.42. It also gave a growth (0.5 µg/ml, genetic background: Δrob, reporter plasmid: EVC) of 2.92 ± 0.091, a growth (0.5 µg/ml, genetic background: Δrob, reporter plasmid: acrABp) of 3.36 ± 0.17 and a growth (0.5 µg/ml, genetic background: Δrob, reporter plasmid: marRABp) of 3.61 ± 0.082. For the same molecule, the growth (0.5 µg/ml, genetic background: Δrob, reporter plasmid: micFp) was 2.74 ± 0.073, the growth (0.5 µg/ml, genetic background: Δrob, reporter plasmid: ompFp) was 2.76 ± 0.49 and the growth (0.5 µg/ml, genetic background: Δrob, reporter plasmid: robp) was 3.12 ± 0.21. The growth (0.5 µg/ml, genetic background: Δrob, reporter plasmid: soxSp) was 2.69 ± 0.098, the growth (0.5 µg/ml, genetic background: Δrob, reporter plasmid: tolCp) was 2.98 ± 0.2 and the growth (0.5 µg/ml, genetic background: ΔsoxS, reporter plasmid: EVC) was 3.01 ± 0.38. It also gave a growth (0.5 µg/ml, genetic background: ΔsoxS, reporter plasmid: acrABp) of 3.22 ± 0.77, a growth (0.5 µg/ml, genetic background: ΔsoxS, reporter plasmid: marRABp) of 3.47 ± 1 and a growth (0.5 µg/ml, genetic background: ΔsoxS, reporter plasmid: micFp) of 2.853 ± 0.028. The growth (0.5 µg/ml, genetic background: ΔsoxS, reporter plasmid: ompFp) was 3.35 ± 0.44, the growth (0.5 µg/ml, genetic background: ΔsoxS, reporter plasmid: robp) was 3.4 ± 0.35 and the growth (0.5 µg/ml, genetic background: ΔsoxS, reporter plasmid: soxSp) was 3.33 ± 0.45. It also gave a growth (0.5 µg/ml, genetic background: ΔsoxS, reporter plasmid: tolCp) of 2.9 ± 0.15, a growth (1 µg/ml, genetic background: wild type, reporter plasmid: EVC) of 3.15 ± 0.14 and a growth (1 µg/ml, genetic background: wild type, reporter plasmid: acrABp) of 3.8 ± 0.058. It also gave a growth (1 µg/ml, genetic background: wild type, reporter plasmid: marRABp) of 3.45 ± 0.3, a growth (1 µg/ml, genetic background: wild type, reporter plasmid: micFp) of 2.88 ± 0.075 and a growth (1 µg/ml, genetic background: wild type, reporter plasmid: ompFp) of 3.33 ± 0.055. For the same molecule, the growth (1 µg/ml, genetic background: wild type, reporter plasmid: robp) was 3.41 ± 0.3, the growth (1 µg/ml, genetic background: wild type, reporter plasmid: soxSp) was 2.79 ± 0.2 and the growth (1 µg/ml, genetic background: wild type, reporter plasmid: tolCp) was 2.79 ± 0.038. The growth (1 µg/ml, genetic background: ΔmarA, reporter plasmid: EVC) was 3.69 ± 0.73, the growth (1 µg/ml, genetic background: ΔmarA, reporter plasmid: acrABp) was 4.59 ± 0.93 and the growth (1 µg/ml, genetic background: ΔmarA, reporter plasmid: marRABp) was 4.18 ± 0.58. For the same molecule, the growth (1 µg/ml, genetic background: ΔmarA, reporter plasmid: micFp) was 3.45 ± 0.074, the growth (1 µg/ml, genetic background: ΔmarA, reporter plasmid: ompFp) was 4.08 ± 0.34 and the growth (1 µg/ml, genetic background: ΔmarA, reporter plasmid: robp) was 4.7 ± 0.13. It also gave a growth (1 µg/ml, genetic background: ΔmarA, reporter plasmid: soxSp) of 3.55 ± 0.53, a growth (1 µg/ml, genetic background: ΔmarA, reporter plasmid: tolCp) of 3.47 ± 0.34 and a growth (1 µg/ml, genetic background: Δrob, reporter plasmid: EVC) of 3.08 ± 0.18. For the same molecule, the growth (1 µg/ml, genetic background: Δrob, reporter plasmid: acrABp) was 3.85 ± 0.11, the growth (1 µg/ml, genetic background: Δrob, reporter plasmid: marRABp) was 3.85 ± 0.55 and the growth (1 µg/ml, genetic background: Δrob, reporter plasmid: micFp) was 3.13 ± 0.11. The growth (1 µg/ml, genetic background: Δrob, reporter plasmid: ompFp) was 3.09 ± 0.27, the growth (1 µg/ml, genetic background: Δrob, reporter plasmid: robp) was 3.01 ± 0.11 and the growth (1 µg/ml, genetic background: Δrob, reporter plasmid: soxSp) was 2.99 ± 0.2. It also gave a growth (1 µg/ml, genetic background: Δrob, reporter plasmid: tolCp) of 3.18 ± 0.27, a growth (1 µg/ml, genetic background: ΔsoxS, reporter plasmid: EVC) of 3.23 ± 0.18 and a growth (1 µg/ml, genetic background: ΔsoxS, reporter plasmid: acrABp) of 3.61 ± 1.1. For the same molecule, the growth (1 µg/ml, genetic background: ΔsoxS, reporter plasmid: marRABp) was 3.62 ± 1.1, the growth (1 µg/ml, genetic background: ΔsoxS, reporter plasmid: micFp) was 2.98 ± 0.12 and the growth (1 µg/ml, genetic background: ΔsoxS, reporter plasmid: ompFp) was 3.48 ± 0.19. It also gave a growth (1 µg/ml, genetic background: ΔsoxS, reporter plasmid: robp) of 3.86 ± 0.12, a growth (1 µg/ml, genetic background: ΔsoxS, reporter plasmid: soxSp) of 3.5 ± 0.72 and a growth (1 µg/ml, genetic background: ΔsoxS, reporter plasmid: tolCp) of 3.04 ± 0.13. For the same molecule, the growth (2 µg/ml, genetic background: wild type, reporter plasmid: EVC) was 2.12 ± 0.49, the growth (2 µg/ml, genetic background: wild type, reporter plasmid: acrABp) was 0.225 ± 0.19 and the growth (2 µg/ml, genetic background: wild type, reporter plasmid: marRABp) was 0.593 ± 0.64. For the same molecule, the growth (2 µg/ml, genetic background: wild type, reporter plasmid: micFp) was 1.13 ± 0.068, the growth (2 µg/ml, genetic background: wild type, reporter plasmid: ompFp) was 0.11 ± 0.0045 and the growth (2 µg/ml, genetic background: wild type, reporter plasmid: robp) was 0.885 ± 0.96. It also gave a growth (2 µg/ml, genetic background: wild type, reporter plasmid: soxSp) of 1.9 ± 0.44, a growth (2 µg/ml, genetic background: wild type, reporter plasmid: tolCp) of 1.8977 ± 0.00037 and a growth (2 µg/ml, genetic background: ΔmarA, reporter plasmid: EVC) of 2.19 ± 0.26. It also gave a growth (2 µg/ml, genetic background: ΔmarA, reporter plasmid: acrABp) of 0.326 ± 0.18, a growth (2 µg/ml, genetic background: ΔmarA, reporter plasmid: marRABp) of 0.471 ± 0.38 and a growth (2 µg/ml, genetic background: ΔmarA, reporter plasmid: micFp) of 1.51 ± 0.65. The growth (2 µg/ml, genetic background: ΔmarA, reporter plasmid: ompFp) was 0.155 ± 0.18, the growth (2 µg/ml, genetic background: ΔmarA, reporter plasmid: robp) was 1.46 ± 1.7 and the growth (2 µg/ml, genetic background: ΔmarA, reporter plasmid: soxSp) was 1.798 ± 0.0096. It also gave a growth (2 µg/ml, genetic background: ΔmarA, reporter plasmid: tolCp) of 1.73 ± 0.86, a growth (2 µg/ml, genetic background: Δrob, reporter plasmid: EVC) of 1.59 ± 0.22 and a growth (2 µg/ml, genetic background: Δrob, reporter plasmid: acrABp) of 0.274 ± 0.05. The growth (2 µg/ml, genetic background: Δrob, reporter plasmid: marRABp) was 0.342 ± 0.23, the growth (2 µg/ml, genetic background: Δrob, reporter plasmid: micFp) was 0.83 ± 0.28 and the growth (2 µg/ml, genetic background: Δrob, reporter plasmid: ompFp) was -0.00693 ± 0.0043. The growth (2 µg/ml, genetic background: Δrob, reporter plasmid: robp) was 0.11 ± 0.16, the growth (2 µg/ml, genetic background: Δrob, reporter plasmid: soxSp) was 1.74 ± 0.49 and the growth (2 µg/ml, genetic background: Δrob, reporter plasmid: tolCp) was 1.84 ± 0.42. For the same molecule, the growth (2 µg/ml, genetic background: ΔsoxS, reporter plasmid: EVC) was 1.95 ± 0.25, the growth (2 µg/ml, genetic background: ΔsoxS, reporter plasmid: acrABp) was 0.208 ± 0.019 and the growth (2 µg/ml, genetic background: ΔsoxS, reporter plasmid: marRABp) was 0.257 ± 0.034. The growth (2 µg/ml, genetic background: ΔsoxS, reporter plasmid: micFp) was 0.839 ± 0.1, the growth (2 µg/ml, genetic background: ΔsoxS, reporter plasmid: ompFp) was 0.0818 ± 0.055 and the growth (2 µg/ml, genetic background: ΔsoxS, reporter plasmid: robp) was 0.0969 ± 0.031. It also gave a growth (2 µg/ml, genetic background: ΔsoxS, reporter plasmid: soxSp) of 0.821 ± 0.66 and a growth (2 µg/ml, genetic background: ΔsoxS, reporter plasmid: tolCp) of 2.16 ± 0.33.
